From PubChem BioAssay AID2685 (National Center for Advancing Translational Sciences (NCATS), 2010)
Screen size: about 320,000 compounds; about 2,100 (0.66%) were called active. Inconclusive results, whose numbers are uncertain, are shown with a selection of clear calls. The call rests on the fitted dose curve; in most records, active means well fitted inhibition curve with a large enough effect in the signal ratio, with a control signal flat (not every such curve was filed as active); inconclusive means small, poorly fitted or top-dose-only effect, or effect the other way, or a change in a side signal; inactive means flat fitted curve, though single readings scatter; the % refers to the signal ratio. Where the call is inconclusive, the potency comes from a doubtful curve fit.
On the % scale 0 is the no-effect control and ±100 the full control effect; potency means the concentration at half of the fitted maximal effect.

Experiment: qHTS Assay for Lipid Storage Modulators in Drosophila S3 Cells
Settings: BODIPY lipid droplet fluorescence, 18-24 h, cells fed with added oleic acid; lipid storage change, negative = inhibition: at 46.1 µM (top of the series) unless noted
Outline: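 Drosophila S3 cells loaded with oleic acid (400 uM, as added) and compounds at several concentrations; lipid droplets imaged by 488-nm laser-scanning cytometry, 500–530 nm intensity and object ratio to cell channel. Percent activity normalized to 20 uM Triacsin C.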
With `CSc1ncccc1C(=O)Nc1cccc(S(=O)(=O)N2CCCCC2)c1` the Potency was active: 16.4 µM. In the case of `COc1ccc(C(c2sc3nc(C)nn3c2O)N2CCC3(CC2)OCCO3)cc1` (configuration not stated), the lipid storage change, negative = inhibition is reported as inconclusive: 9.99%. With `Cc1ccccc1NC(=O)Nc1cc(-c2ccccc2)nn1C` the Potency was inconclusive: 2.31 µM [falling, partial curve, poor fit]. With `Cc1ccc(CC(=O)N/N=C/c2ccc3c(c2)OCO3)cc1` the Potency was inconclusive: 0.461 µM [activator, full curve]. For `CCOC(=O)c1c(NC(=S)Nc2ccc(OC)cc2)sc2c1CCCCC2`, the Potency was inconclusive: 14.6 µM [activator, partial curve]. For `COc1cccc(NC(C)(C)c2nnnn2-c2c(C)cccc2C)c1`, the “lipid storage change, negative = inhibition” value was inactive: -0.863%. In the case of `Cc1ccccc1CC1SC(N)=NC1=O` (configuration not stated), the lipid storage change, negative = inhibition is reported as inconclusive: -17.1%. With `COc1ccc(OCC(=O)Nc2ccc(C)c(S(=O)(=O)N(C)C)c2)cc1` the lipid storage change, negative = inhibition was inconclusive: 15.2%. In the case of `CN(C(=O)c1ccc2c(=O)n3c(nc2c1)CCCCC3)c1ccccc1Cl`, the lipid storage change, negative = inhibition is reported as inconclusive: 30.4%. With `COc1ccc(/C=C/C(=O)c2ccc[nH]2)cc1OC` the lipid storage change, negative = inhibition was inconclusive: -1.22%. For `COCCCNC(=O)c1c[nH]c2ccc(S(=O)(=O)N(C)c3ccccc3C)cc2c1=O`, the lipid storage change, negative = inhibition was inconclusive: -22.4%. With `COc1ccc(Cl)cc1Nc1ncnc2sc(C)c(S(=O)(=O)N3CCC(C)CC3)c12` the lipid storage change, negative = inhibition was inconclusive: 10.2%. With `CCOC(=O)c1cc2c(ccn2C)n1CC(=O)N(Cc1ccccc1)c1ccc(F)cc1` the lipid storage change, negative = inhibition was inconclusive: -20.8%. With `Cc1nc(NCc2ccccc2)c2cc[nH]c2n1` the Potency was inconclusive: 0.461 µM [activator, full curve]. With `Cc1ccc(NC(=O)c2cccc(S(=O)(=O)N(C)C3CCCCC3)c2)nc1` the Potency was inconclusive: 2.59 µM [activator, single point]. In the case of `COc1ccc([C@]23Cc4cc(OC)c(OC)cc4C(O2)c2c(c4ccccc4oc2=O)O3)cc1`, the lipid storage change, negative = inhibition is reported as inconclusive: 0.931% [at 9.22 µM]. With `O=C1CCCN1CN(C(=O)c1ccccc1)c1ccccc1` the lipid storage change, negative = inhibition was inconclusive: -23%. With `COc1ccc(NC(=S)N2CCC(c3ccccc3)C2)cc1` (configuration not stated) the lipid storage change, negative = inhibition was inconclusive: 16.8%. For `O=C(CSc1cccc(C(F)(F)F)c1)NC(=O)NCc1ccco1`, the lipid storage change, negative = inhibition was inconclusive: -41.1%. In the case of `O=C(CNC(=O)c1ccc(Br)o1)Nc1ccccc1`, the lipid storage change, negative = inhibition is reported as inconclusive: 4.44%. In the case of `O=C(c1cccc(S(=O)(=O)N2CCCC2)c1)N1CCN(c2ccccc2F)CC1`, the lipid storage change, negative = inhibition is reported as inconclusive: 39.9%. For `O=C(Nc1cccc2c1C(=O)NC2=O)c1cccnc1Cl`, the lipid storage change, negative = inhibition was inconclusive: 13.5%. In the case of `Cc1ccc(S(=O)(=O)CCC(=O)OCC(=O)NC(=O)c2ccccc2)cc1`, the lipid storage change, negative = inhibition is reported as inconclusive: -12.9%. For `COCCNC(=O)C(c1ccc(C)cc1)N(Cc1ccco1)C(=O)CCC(=O)Nc1ccccn1` (configuration not stated), the Potency was inconclusive: 6.51 µM [activator, single point]. In the case of `COc1ccc(C[C@H]2CN3C(=NC[C@@H]3Cc3ccccc3)N2CCNC(=O)c2ccc(C)c(Br)c2)cc1`, the Potency is reported as inconclusive: 29.1 µM [falling, single point]. With `O=C(COC(=O)c1cccc(O)c1)NC(=O)Cc1ccccc1` the lipid storage change, negative = inhibition was inconclusive: -12.2%. In the case of `Cc1nn(-c2ccccc2)c(C)c1C(=O)NCCc1ccccc1`, the lipid storage change, negative = inhibition is reported as inconclusive: -27.4%. For `NC(=O)[C@@H]1CCNc2c(I)cc([N+](=O)[O-])cc2C(=O)N[C@@H](CO)C(=O)N[C@@H](Cc2ccc(O)cc2)C(=O)N1`, the lipid storage change, negative = inhibition was inconclusive: 16%. For `CCc1cccc(NC(=S)N(CCOC)C(C)c2ccco2)c1` (configuration not stated), the lipid storage change, negative = inhibition was inconclusive: 20.7%. For `Cc1c(Cl)cccc1N(CC(=O)NC1CCCCC1)S(C)(=O)=O`, the Potency was inconclusive: 5.8 µM [falling, full curve]. For `COc1ccc(-c2cc(-c3ccc(Cl)cc3)n[nH]2)c(O)c1`, the Potency was inconclusive: 18.4 µM [falling, single point]. For `N#C/C(=C/c1ccc(N2CCCCCC2)o1)c1cccc(F)c1`, the lipid storage change, negative = inhibition was inconclusive: -122%. For `Cc1ccc(S(=O)(=O)Nc2ccc(-c3ccc4nncn4n3)cc2)cc1`, the “lipid storage change, negative = inhibition” value was inactive: 7.13%. For `Cc1ccc(O)c(-c2cc3ccccc3[nH]2)c1`, the Potency was inconclusive: 18.4 µM [falling, single point]. With `COc1ccccc1CNC(=O)CCS(=O)(=O)c1cccc2nonc12` the lipid storage change, negative = inhibition was inconclusive: 20.3%. For `COc1ccccc1NS(=O)(=O)c1cc(C(=O)N2CCN(C/C=C/c3ccccc3)CC2)ccc1C`, the lipid storage change, negative = inhibition was inconclusive: 16.3%. For `Cc1ccccc1CC(=O)N1CCN(S(=O)(=O)c2cccs2)CC1`, the lipid storage change, negative = inhibition was inconclusive: 90.9%. In the case of `COC(=O)c1c(C)[nH]c(C(=O)COC(=O)CCNS(=O)(=O)c2cccc(C(F)(F)F)c2)c1C`, the lipid storage change, negative = inhibition is reported as inconclusive: 2.86%. With `Cc1ccc(C(C)NC(=O)Cc2cccs2)cc1C` (configuration not stated) the lipid storage change, negative = inhibition was inconclusive: 150%. With `Cc1ccc(S(=O)(=O)NCCC(=O)OCC(=O)N(Cc2ccccc2)C(C)(C)C)cc1C` the lipid storage change, negative = inhibition was inconclusive: 30.3%. In the case of `NC(=O)c1c(NC(=O)CN2CCN(S(=O)(=O)c3ccccc3)CC2)sc2c1CCC2`, the lipid storage change, negative = inhibition is reported as inconclusive: 30.9%. In the case of `Cc1ccc(NC(=O)Cc2ccccc2F)cc1S(=O)(=O)N1CCCCCC1`, the lipid storage change, negative = inhibition is reported as inconclusive: -18.1%. For `O=S(=O)(NCc1cccnc1)c1cc(Cl)ccc1Cl`, the Potency was inconclusive: 0.651 µM [falling, full curve]. With `COc1ccc(CSc2nc(C)[nH]c2[N+](=O)[O-])cc1[N+](=O)[O-]` the Potency was inconclusive: 7.31 µM [activator, partial curve]. In the case of `CC1(C)CN(c2ccc(N3CC(C)(C)C3=O)cc2)C1=O`, the Potency is reported as inconclusive: 6.51 µM [falling, single point]. In the case of `Cc1cccc(N2CC(c3nc4ccccc4[nH]3)CC2=O)c1` (configuration not stated), the lipid storage change, negative = inhibition is reported as inconclusive: 14.5% [at 9.22 µM]. For `CCC(C)(C)NC(=O)C(c1ccc(O)cc1)N(Cc1ccco1)C(=O)CCC(=O)Nc1ccccn1` (configuration not stated), the Potency was inconclusive: 0.13 µM [activator, single point]. In the case of `CSCCC(NS(=O)(=O)c1ccc(C)cc1)C(=O)NCCc1c[nH]c2ccccc12` (configuration not stated), the Potency is reported as inconclusive: 9.2 µM [activator, partial curve]. In the case of `Cc1c(C)n(-c2ccccc2)c2ncnc(NCCN(C)C)c12`, the lipid storage change, negative = inhibition is reported as inconclusive: -2.01%. With `CCNc1nc(NCC)n2c(SCC(=O)Nc3c(C)cccc3C)nnc2n1` the lipid storage change, negative = inhibition was inconclusive: 33.3%. For `Cc1ccc(CNC(=O)c2ccc(N3CCC4(CC3)CC(c3ccccc3)=NO4)c(NC(=O)c3ccc(Cl)c([N+](=O)[O-])c3)c2)cc1`, the lipid storage change, negative = inhibition was inconclusive: 92.8%. In the case of `O=C(C1CCC1)N1CCN(c2ccc(Cl)cc2)CC1`, the lipid storage change, negative = inhibition is reported as inconclusive: 30.9%. With `CCCN(CCO)Cc1ccc2ccccc2c1` the lipid storage change, negative = inhibition was inconclusive: -4.07%. With `Cc1ccc(NC(=O)COC(=O)c2ccc3c(=O)n4c(nc3c2)CCC4)c(Br)c1` the Potency was inconclusive: 32.6 µM [falling, single point]. In the case of `Cc1ccc2[nH]c(=O)c(CN(CCCN3CCOCC3)C(=O)Nc3cccc(Cl)c3)cc2c1`, the lipid storage change, negative = inhibition is reported as inconclusive: 37%. For `CC(Sc1ccc(S(=O)(=O)N2CCCCCC2)cn1)C(N)=O` (configuration not stated), the lipid storage change, negative = inhibition was “inconclusive”. In the case of `CCCCOc1ccc(C(=O)Nc2cccc(C)n2)cc1`, the lipid storage change, negative = inhibition is reported as inconclusive: 8.56%. With `Cc1ccc(OCc2nnc(SCC(=O)Nc3ncc(C)s3)o2)cc1` the lipid storage change, negative = inhibition was inconclusive: -5.85%. In the case of `COc1ccc(C)c2sc(NC(=O)CCS(=O)(=O)c3ccccc3)nc12`, the Potency is reported as inconclusive: 29.1 µM [falling, single point]. With `Cc1c(C(=O)N2CCOCC2)sc(NC(=O)Cc2ccccc2)c1C#N` the lipid storage change, negative = inhibition was inconclusive: 0.835%. With `COc1ccc(CSCC(=O)N/N=C/c2ccc(OCC(=O)N3CCCCC3)cc2)cc1` the Potency was inconclusive: 5.8 µM [activator, full curve, poor fit]. For `COc1ccc(CNC(=O)CCS(=O)(=O)c2ccc3c(c2)CCN3C(C)=O)cc1`, the Potency was inconclusive: 0.651 µM [activator, single point]. With `COc1ccc(NC(=O)CN(C)C(=O)c2ccc(COc3ccccc3)o2)cc1` the lipid storage change, negative = inhibition was inconclusive: -7.83%. With `Cc1ccc(C(=O)COC(=O)c2n[nH]c(=O)c3ccccc23)cc1` the lipid storage change, negative = inhibition was inconclusive: -2.99%. For `FC(F)(F)C(Oc1nc(NC2CCCCC2)nc(N2CCOCC2)n1)C(F)(F)F`, the Potency was inconclusive: 20.6 µM [falling, single point]. For `O=C(NCc1ccc2c(c1)OCO2)c1ccc(CS(=O)(=O)c2cccc(C(F)(F)F)c2)o1`, the lipid storage change, negative = inhibition was inconclusive: -29.8%. For `Cn1c(/C=C(\C#N)C(N)=S)ccc1-c1ccc(Br)cc1`, the lipid storage change, negative = inhibition was inconclusive: -24.8%. For `O=C(N/C(=C\c1ccccc1)C(=O)N1CCOCC1)c1ccc(Br)o1`, the lipid storage change, negative = inhibition was inconclusive: -36.5%. With `Cc1cccc(OCCCC(=O)NNC(=O)c2ccncc2)c1` the lipid storage change, negative = inhibition was “inconclusive”. With `CCCCNC(=S)N=Nc1c(O)n(Cc2ccccc2)c2ccccc12` the lipid storage change, negative = inhibition was inconclusive: -28.5%. In the case of `COc1cccc(OC)c1OCCCCc1c(C)n[nH]c1C`, the lipid storage change, negative = inhibition is reported as inconclusive: 8.24%. With `CC(=O)Nc1cccc(C(=O)Oc2cccc(C)c2)c1O` the lipid storage change, negative = inhibition was inconclusive: -5.24%. For `CCC(C)c1ccccc1N1CC(C(=O)Nc2cccc(S(=O)(=O)N3CCOCC3)c2)CC1=O` (configuration not stated), the lipid storage change, negative = inhibition was inconclusive: -76.4%. With `CCc1ccc(C(C)NC(=O)c2ccc(F)cc2)cc1` (configuration not stated) the lipid storage change, negative = inhibition was inconclusive: 7.65%. For `O=C(CNC(=O)c1[nH]cnc1C(=O)N[C@@H](Cc1ccccc1)C(=O)OCc1ccccc1)OCc1ccccc1`, the lipid storage change, negative = inhibition was inconclusive: -21.8%. With `O=C(O)C1CCN(C(=O)COc2ccc(Br)cc2)CC1` the lipid storage change, negative = inhibition was inconclusive: -2.39%. For `Cc1cc(C)c(-c2cc(NC(=O)COC(=O)c3ccc(C#N)cc3)n(-c3ccccc3)n2)cc1C`, the lipid storage change, negative = inhibition was inconclusive: 22.6%.
